{"source": "paper PMC5322733", "key": {"[1]": {"biological_target": "T1, GST-tagged DA1 (Arabidopsis thaliana) (UniProt P0C7Q8)", "T1 sequence": "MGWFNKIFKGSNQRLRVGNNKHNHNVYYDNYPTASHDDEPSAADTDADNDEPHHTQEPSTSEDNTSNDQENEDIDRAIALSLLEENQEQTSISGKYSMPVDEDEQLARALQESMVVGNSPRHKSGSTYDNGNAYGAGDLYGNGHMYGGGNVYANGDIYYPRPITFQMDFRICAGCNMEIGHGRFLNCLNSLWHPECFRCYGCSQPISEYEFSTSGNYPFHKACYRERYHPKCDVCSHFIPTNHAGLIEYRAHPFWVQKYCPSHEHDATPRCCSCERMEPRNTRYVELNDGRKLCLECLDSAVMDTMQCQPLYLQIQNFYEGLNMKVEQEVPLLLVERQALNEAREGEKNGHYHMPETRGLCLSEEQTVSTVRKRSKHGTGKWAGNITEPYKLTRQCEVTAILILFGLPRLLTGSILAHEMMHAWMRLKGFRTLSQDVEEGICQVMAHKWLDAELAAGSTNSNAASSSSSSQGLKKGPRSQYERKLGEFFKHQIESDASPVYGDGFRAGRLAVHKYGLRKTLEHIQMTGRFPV", "experiment": "pull-down; in vitro; GST-DA1 with HIS-BB or HIS-BBR; GST-GUS as negative control"}, "[2]": {"biological_target": "T2, BB-GFP (Arabidopsis thaliana) (UniProt Q8L649)", "T2 sequence": "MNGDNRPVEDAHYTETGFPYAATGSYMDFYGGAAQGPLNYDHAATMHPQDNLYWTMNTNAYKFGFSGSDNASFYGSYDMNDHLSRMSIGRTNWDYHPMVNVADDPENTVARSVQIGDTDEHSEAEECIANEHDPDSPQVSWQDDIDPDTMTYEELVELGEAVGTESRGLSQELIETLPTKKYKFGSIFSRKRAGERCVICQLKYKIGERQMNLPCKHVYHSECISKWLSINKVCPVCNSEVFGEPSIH", "experiment": "co-IP; BB-GFP or GFP coexpressed with Myc-DA1 in N. benthamiana leaves (Agrobacterium-mediated transient expression); purified using GFP trap and immunoblotted"}}, "note": "Results are given in words; binding and its absence hold for the method and conditions named. Binding seen in cells or lysates may run through a third protein. Some results given as binding are weak or reduced against the parent protein; the word gives no strength. Tags and fused reporters may be left off the sequences shown.", "data": [{"binder": "HIS-tagged Big Brother (BB) (enzyme, UniProt Q8L649 1-248) MNGDNRPVEDAHYTETGFPYAATGSYMDFYGGAAQGPLNYDHAATMHPQDNLYWTMNTNAYKFGFSGSDNASFYGSYDMNDHLSRMSIGRTNWDYHPMVNVADDPENTVARSVQIGDTDEHSEAEECIANEHDPDSPQVSWQDDIDPDTMTYEELVELGEAVGTESRGLSQELIETLPTKKYKFGSIFSRKRAGERCVICQLKYKIGERQMNLPCKHVYHSECISKWLSINKVCPVCNSEVFGEPSIH", "values": [{"measurement": "binding", "setting": "[1]", "value": "binds"}]}, {"binder": "Myc-tagged DA1 (enzyme, UniProt P0C7Q8 1-532) MGWFNKIFKGSNQRLRVGNNKHNHNVYYDNYPTASHDDEPSAADTDADNDEPHHTQEPSTSEDNTSNDQENEDIDRAIALSLLEENQEQTSISGKYSMPVDEDEQLARALQESMVVGNSPRHKSGSTYDNGNAYGAGDLYGNGHMYGGGNVYANGDIYYPRPITFQMDFRICAGCNMEIGHGRFLNCLNSLWHPECFRCYGCSQPISEYEFSTSGNYPFHKACYRERYHPKCDVCSHFIPTNHAGLIEYRAHPFWVQKYCPSHEHDATPRCCSCERMEPRNTRYVELNDGRKLCLECLDSAVMDTMQCQPLYLQIQNFYEGLNMKVEQEVPLLLVERQALNEAREGEKNGHYHMPETRGLCLSEEQTVSTVRKRSKHGTGKWAGNITEPYKLTRQCEVTAILILFGLPRLLTGSILAHEMMHAWMRLKGFRTLSQDVEEGICQVMAHKWLDAELAAGSTNSNAASSSSSSQGLKKGPRSQYERKLGEFFKHQIESDASPVYGDGFRAGRLAVHKYGLRKTLEHIQMTGRFPV", "values": [{"measurement": "binding", "setting": "[2]", "value": "binds"}]}, {"binder": "HIS-tagged BBR (BB-related) (enzyme, UniProt Q9LT17 1-340) MPMENDNGPHVGNVVVTAEQATKINETDGRLPENRQTGVVSDTGSGSERGEQGVGESAVAVAVPVEESGSISVGELPAPRSSSARVPFTNLSQIDADLALARTLQEQERAYMMLTMNSEISDYGSWETGSYVYDEDEFDDPENEDEDDDEDEYETDDDPQEDGLDVNVHANEDDQEDDGNSDIEEVAYTDDEAYARALQEAEERDMAARLSALSGLANRVVEDLEDESHTSQDAWDEMDPDELSYEELLALGDIVGTESRGLSADTIASLPSKRYKEGDNQNGTNESCVICRLDYEDDEDLILLPCKHSYHSECINNWLKINKVCPVCSAEVSTSTSGQS", "values": [{"measurement": "binding", "setting": "[1]", "value": "no binding"}]}]}
